Experimental findings from article PMC6546747 are described below.

The chains behind the UniProt entries cited, without tags or fusion partners. Where a name states a change or a piece, a line headed by the entry shows the natural chain unless it says otherwise. A line that says so, or that is headed by a name, gives the form on record, which may keep a tag or linker. Residues count along the entry.
UniProt Q9DBH0: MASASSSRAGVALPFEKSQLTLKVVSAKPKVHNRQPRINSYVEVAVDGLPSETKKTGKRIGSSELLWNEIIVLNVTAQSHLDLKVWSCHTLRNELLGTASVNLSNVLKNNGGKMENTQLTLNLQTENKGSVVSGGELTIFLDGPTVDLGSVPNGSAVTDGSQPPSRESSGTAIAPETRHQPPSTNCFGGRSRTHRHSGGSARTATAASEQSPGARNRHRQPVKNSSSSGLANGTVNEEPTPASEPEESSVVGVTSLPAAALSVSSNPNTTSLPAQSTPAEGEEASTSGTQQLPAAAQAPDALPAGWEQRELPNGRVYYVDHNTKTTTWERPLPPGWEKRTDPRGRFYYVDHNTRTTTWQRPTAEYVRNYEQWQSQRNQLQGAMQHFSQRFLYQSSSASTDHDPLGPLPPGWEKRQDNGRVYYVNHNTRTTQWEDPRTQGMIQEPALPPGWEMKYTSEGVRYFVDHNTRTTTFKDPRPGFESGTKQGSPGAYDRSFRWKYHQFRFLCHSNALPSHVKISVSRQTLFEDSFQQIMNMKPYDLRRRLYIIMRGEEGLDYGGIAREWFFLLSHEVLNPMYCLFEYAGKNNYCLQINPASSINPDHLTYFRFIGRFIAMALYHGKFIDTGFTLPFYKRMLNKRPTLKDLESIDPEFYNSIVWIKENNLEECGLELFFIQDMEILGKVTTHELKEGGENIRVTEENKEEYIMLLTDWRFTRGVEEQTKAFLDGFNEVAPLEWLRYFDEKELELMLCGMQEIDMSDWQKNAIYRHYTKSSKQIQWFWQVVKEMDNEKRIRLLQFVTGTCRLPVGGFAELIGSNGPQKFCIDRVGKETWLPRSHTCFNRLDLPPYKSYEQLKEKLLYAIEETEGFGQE
UniProt Q08775: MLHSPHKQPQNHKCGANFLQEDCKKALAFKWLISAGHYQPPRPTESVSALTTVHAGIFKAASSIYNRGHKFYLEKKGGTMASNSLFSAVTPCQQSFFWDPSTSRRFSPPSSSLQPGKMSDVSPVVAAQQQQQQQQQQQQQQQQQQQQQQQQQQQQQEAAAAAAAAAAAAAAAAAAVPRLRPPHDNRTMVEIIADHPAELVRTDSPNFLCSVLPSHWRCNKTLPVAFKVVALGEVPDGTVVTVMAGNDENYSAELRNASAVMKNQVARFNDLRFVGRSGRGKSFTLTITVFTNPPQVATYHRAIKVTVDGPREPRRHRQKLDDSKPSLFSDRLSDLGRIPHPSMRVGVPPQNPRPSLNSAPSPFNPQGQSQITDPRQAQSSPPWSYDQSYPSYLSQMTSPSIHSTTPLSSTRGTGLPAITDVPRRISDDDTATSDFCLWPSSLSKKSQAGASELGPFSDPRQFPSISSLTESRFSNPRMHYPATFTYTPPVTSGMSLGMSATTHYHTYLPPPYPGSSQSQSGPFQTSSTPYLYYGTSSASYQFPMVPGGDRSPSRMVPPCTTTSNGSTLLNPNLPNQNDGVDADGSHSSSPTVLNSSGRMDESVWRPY
Runx2 (Runt-related transcription factor 2), full-length, myc- or flag-tagged: residues 80-607 of Q08775

For assay [1], the target named is Wwp2 (WW domain-containing protein 2), full-length, flag- or myc-tagged (mouse) (UniProt Q9DBH0). Put plainly: co-IP; HEK293T cells transfected with plasmids and treated with MG132 (10 uM, 7 h); lysis buffer 25 mM Tris/HCl pH 7.4, 150 mM NaCl, 1% NP-40, 1 mM EDTA, 5% glycerol; lysates treated with anti-myc-tag antibody and protein A; western blot. In general terms: A western blot detects proteins with antibodies after separation by electrophoresis.

Assay [2] deals with myc-Wwp2 transduced into the ATDC5 chondrogenic cell line (mouse) (UniProt Q9DBH0). Put plainly: co-IP; ATDC5 cells transduced with retroviral myc-Wwp2; anti-myc-tag antibody; endogenous Runx2 detected by western blot.

Results are given in words; binding and its absence hold for the method and conditions named. In cells and extracts the contact can be indirect. Some results given as binding are weak or reduced against the parent protein; the word gives no strength.

On to “Runx2 (Runt-related transcription factor 2), full-length, myc- or flag-tagged (from UniProt Q08775-5 1-528)”, for which the binding result in assay [1] is given as “binds”.
Turning to “endogenous Runx2 protein of ATDC5 cells (from UniProt Q08775 1-607)”, the binding result in assay [2] was “binds”.
